According to publication PMC8396294:
No constants are given. Whether binding was seen depends on the method and setting. Binding seen in cells or lysates may run through a third protein. Binding calls can cover weak binding; strength is not graded here. Tags and fused reporters may be left off the sequences shown.

How the values were obtained:
[1] = target: T1, Transglutaminase 6 (TG6) with a C-terminal Strep2 tag (UniProt O95932); assay: co-IP; lysates of transiently double transfected SH-SY5Y cells; TG6 precipitated with the anti-STREP II-tag antibody, Protein A/G agarose; huntingtin variants detected by blot
T1 sequence: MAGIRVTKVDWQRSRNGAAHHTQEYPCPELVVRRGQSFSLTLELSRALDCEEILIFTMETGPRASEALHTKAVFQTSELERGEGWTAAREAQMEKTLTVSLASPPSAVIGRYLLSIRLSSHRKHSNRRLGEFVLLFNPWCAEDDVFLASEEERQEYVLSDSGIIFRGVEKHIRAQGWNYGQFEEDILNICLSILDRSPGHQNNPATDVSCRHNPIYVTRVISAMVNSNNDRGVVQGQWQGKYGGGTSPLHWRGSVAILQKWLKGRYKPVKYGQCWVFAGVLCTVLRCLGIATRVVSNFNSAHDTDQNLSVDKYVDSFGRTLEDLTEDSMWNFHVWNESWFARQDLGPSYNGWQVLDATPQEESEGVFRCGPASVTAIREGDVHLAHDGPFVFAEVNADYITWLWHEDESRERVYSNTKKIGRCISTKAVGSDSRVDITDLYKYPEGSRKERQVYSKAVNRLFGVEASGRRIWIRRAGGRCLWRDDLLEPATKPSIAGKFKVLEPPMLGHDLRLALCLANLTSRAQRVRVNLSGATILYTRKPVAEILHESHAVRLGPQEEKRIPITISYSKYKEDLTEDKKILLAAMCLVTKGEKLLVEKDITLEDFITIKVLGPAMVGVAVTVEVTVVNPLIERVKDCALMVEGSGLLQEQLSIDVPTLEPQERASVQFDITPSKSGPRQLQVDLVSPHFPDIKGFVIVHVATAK

[2] = target: Huntingtin exon 1 fragment with 25 glutamines, C-terminal EGFP; assay: co-IP; lysates (soluble fractions) of transiently double transfected SH-SY5Y cells; huntingtin variants precipitated (antibodies named in the methods: mab2166, anti-polyglutamine 1C2, anti-EGFP), Protein A/G agarose; TG6 detected with anti-Strep II antibody
[3] = target: Mutant huntingtin exon 1 fragment with 97 glutamines, C-terminal EGFP; assay: as above

## Mutant huntingtin exon 1 fragment with 97 glutamines, C-terminal EGFP (domain or fragment)
[1]
  binding: binds

B1: Transglutaminase 6 (TG6) with a C-terminal Strep2 tag (enzyme, UniProt O95932 1-706)
chain: MAGIRVTKVDWQRSRNGAAHHTQEYPCPELVVRRGQSFSLTLELSRALDCEEILIFTMETGPRASEALHTKAVFQTSELERGEGWTAAREAQMEKTLTVSLASPPSAVIGRYLLSIRLSSHRKHSNRRLGEFVLLFNPWCAEDDVFLASEEERQEYVLSDSGIIFRGVEKHIRAQGWNYGQFEEDILNICLSILDRSPGHQNNPATDVSCRHNPIYVTRVISAMVNSNNDRGVVQGQWQGKYGGGTSPLHWRGSVAILQKWLKGRYKPVKYGQCWVFAGVLCTVLRCLGIATRVVSNFNSAHDTDQNLSVDKYVDSFGRTLEDLTEDSMWNFHVWNESWFARQDLGPSYNGWQVLDATPQEESEGVFRCGPASVTAIREGDVHLAHDGPFVFAEVNADYITWLWHEDESRERVYSNTKKIGRCISTKAVGSDSRVDITDLYKYPEGSRKERQVYSKAVNRLFGVEASGRRIWIRRAGGRCLWRDDLLEPATKPSIAGKFKVLEPPMLGHDLRLALCLANLTSRAQRVRVNLSGATILYTRKPVAEILHESHAVRLGPQEEKRIPITISYSKYKEDLTEDKKILLAAMCLVTKGEKLLVEKDITLEDFITIKVLGPAMVGVAVTVEVTVVNPLIERVKDCALMVEGSGLLQEQLSIDVPTLEPQERASVQFDITPSKSGPRQLQVDLVSPHFPDIKGFVIVHVATAK
[2]
  binding: binds
[3]
  binding: binds
